Reference: article PMC4893664
Results are given in words; binding and its absence hold for the method and conditions named. Binding seen in cells or lysates may run through a third protein. Some entries that bind do so weakly or less than the wild type. For some assays here: Tags and fused reporters may be left off the sequences shown.

By UniProt entry, the sequences of proteins in these tests, tags left out.
UniProt Q96EZ8: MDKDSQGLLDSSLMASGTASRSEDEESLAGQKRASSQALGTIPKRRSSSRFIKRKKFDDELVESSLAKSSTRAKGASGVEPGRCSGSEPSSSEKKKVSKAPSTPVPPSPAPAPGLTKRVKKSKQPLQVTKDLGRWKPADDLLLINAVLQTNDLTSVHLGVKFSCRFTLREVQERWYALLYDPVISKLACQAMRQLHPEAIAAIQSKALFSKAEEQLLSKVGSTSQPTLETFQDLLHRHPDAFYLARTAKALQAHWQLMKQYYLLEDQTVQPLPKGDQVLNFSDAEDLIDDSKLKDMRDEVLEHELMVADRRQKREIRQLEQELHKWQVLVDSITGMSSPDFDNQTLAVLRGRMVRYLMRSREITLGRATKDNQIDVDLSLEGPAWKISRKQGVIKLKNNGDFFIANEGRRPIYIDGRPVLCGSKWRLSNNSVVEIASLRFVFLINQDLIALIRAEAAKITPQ
UniProt Q6IQ55: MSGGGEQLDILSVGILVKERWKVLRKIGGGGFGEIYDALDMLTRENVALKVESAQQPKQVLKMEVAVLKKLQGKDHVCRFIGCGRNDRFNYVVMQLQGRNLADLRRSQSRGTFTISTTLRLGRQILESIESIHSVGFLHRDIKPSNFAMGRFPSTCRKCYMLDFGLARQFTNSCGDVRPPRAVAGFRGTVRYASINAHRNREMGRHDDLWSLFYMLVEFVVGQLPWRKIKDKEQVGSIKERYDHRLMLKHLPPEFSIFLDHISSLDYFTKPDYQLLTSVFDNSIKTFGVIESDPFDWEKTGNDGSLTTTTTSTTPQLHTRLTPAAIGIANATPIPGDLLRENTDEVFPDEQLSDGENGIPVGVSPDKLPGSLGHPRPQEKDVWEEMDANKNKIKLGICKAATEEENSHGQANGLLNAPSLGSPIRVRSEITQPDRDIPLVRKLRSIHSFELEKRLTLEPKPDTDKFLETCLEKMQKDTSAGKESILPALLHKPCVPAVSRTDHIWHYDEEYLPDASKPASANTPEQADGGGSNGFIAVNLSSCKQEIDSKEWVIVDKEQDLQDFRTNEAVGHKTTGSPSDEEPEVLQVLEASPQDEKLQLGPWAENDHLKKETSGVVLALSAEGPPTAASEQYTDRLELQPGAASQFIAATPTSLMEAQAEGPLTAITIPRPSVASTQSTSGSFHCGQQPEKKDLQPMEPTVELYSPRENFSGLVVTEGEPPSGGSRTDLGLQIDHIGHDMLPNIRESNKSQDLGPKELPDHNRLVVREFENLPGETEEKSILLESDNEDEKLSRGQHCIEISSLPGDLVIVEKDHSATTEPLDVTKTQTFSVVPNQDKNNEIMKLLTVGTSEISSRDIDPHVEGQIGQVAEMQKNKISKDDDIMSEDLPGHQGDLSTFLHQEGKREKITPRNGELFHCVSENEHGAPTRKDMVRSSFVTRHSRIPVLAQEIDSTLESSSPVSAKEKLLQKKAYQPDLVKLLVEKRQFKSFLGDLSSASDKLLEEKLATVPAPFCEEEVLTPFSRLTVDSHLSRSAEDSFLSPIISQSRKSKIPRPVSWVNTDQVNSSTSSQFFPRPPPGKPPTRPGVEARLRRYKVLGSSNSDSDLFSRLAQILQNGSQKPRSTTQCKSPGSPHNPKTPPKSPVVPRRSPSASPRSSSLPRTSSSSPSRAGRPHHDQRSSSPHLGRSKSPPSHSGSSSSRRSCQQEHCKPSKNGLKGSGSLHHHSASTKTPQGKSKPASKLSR

B1: NDE1-MYC (protein, UniProt Q9NXR1 1-335)
chain: MEDSGKTFSSEEEEANYWKDLAMTYKQRAENTQEELREFQEGSREYEAELETQLQQIETRNRDLLSENNRLRMELETIKEKFEVQHSEGYRQISALEDDLAQTKAIKDQLQKYIRELEQANDDLERAKRATIMSLEDFEQRLNQAIERNAFLESELDEKENLLESVQRLKDEARDLRQELAVQQKQEKPRTPMPSSVEAERTDTAVQATGSVPSTPIAHRGPSSSLNTPGSFRRGLDDSTGGTPLTPAARISALNIVGDLLRKVGALESKLASCRNLVYDQSPNRTGGPASGRSSKNRDGGERRPSSTSVPLGDKGLDTSCRWLSKSTTRSSSSC

Legend:
[1] = target: MCRS1-FLAG (microspherule protein 1, FLAG-tagged) (human) (UniProt Q96EZ8); assay: co-IP; HEK293T cells transfected for 16 hr, lysed in Nonidet P-40 lysis buffer; lysates immunoprecipitated with anti-FLAG antibody conjugated with agarose beads (anti-FLAG M2 affinity gel) overnight at 4 °C; immunoblot
[2] = target: MCRS1-FLAG (microspherule protein 1, FLAG-tagged) (human) (UniProt Q96EZ8); assay: co-IP; co-immunoprecipitation of MCRS1 and NDE1 with or without overexpressed TTBK2; resin and tags for this experiment not told (Supplementary Fig. S3)

| Molecule | binding [1] | binding [2] |
| --- | --- | --- |
| TTBK2-GFP (from UniProt Q6IQ55 1-1244) | binds | – |
| B1 | – | binds |
